Source: paper PMC10229567
Substitutions are numbered along the chain they refer to. Names may count otherwise. No constants are given. Whether binding was seen depends on the method and setting. For part of these data: Binding seen in cells or lysates may run through a third protein. Some entries that bind do so weakly or less than the wild type. Tags and fused reporters may be left off the sequences shown. Blank lines part the entries; values can stand above or below the binder they belong to.

Columns and labels:
S704A-mutant LOXL3-FLAG [1] = molecular target: S704A-mutant LOXL3-FLAG (UniProt P58215); assay: reverse high-performance liquid chromatography (R-FPLC); LOXL3-FLAG (WT, S704A, S704D) enriched from stably expressing Huh7 cells and analysed for the homodimer; both purified
S704A-mutant LOXL3-FLAG [2] = molecular target: S704A-mutant LOXL3-FLAG (UniProt P58215); assay: co-IP; LOXL3 homodimerization, WT against S704A (Supplementary Fig. 3a); set-up not shown
S704D-mutant LOXL3-FLAG = S704D-mutant LOXL3-FLAG (UniProt P58215); assay: reverse high-performance liquid chromatography (R-FPLC); LOXL3-FLAG (WT, S704A, S704D) enriched from stably expressing Huh7 cells and analysed for the homodimer; both purified

binding (S704A-mutant LOXL3-FLAG [1]): binds weakly
binding (S704A-mutant LOXL3-FLAG [2]): binds weakly
B1: S704A-mutant LOXL3-FLAG (protein, UniProt P58215 26-753)
chain: SPSPSTGPEKKAGSQGLRFRLAGFPRKPYEGRVEIQRAGEWGTICDDDFTLQAAHILCRELGFTEATGWTHSAKYGPGTGRIWLDNLSCSGTEQSVTECASRGWGNSDCTHDEDAGVICKDQRLPGFSDSNVIEVEHHLQVEEVRIRPAVGWGRRPLPVTEGLVEVRLPDGWSQVCDKGWSAHNSHVVCGMLGFPSEKRVNAAFYRLLAQRQQHSFGLHGVACVGTEAHLSLCSLEFYRANDTARCPGGGPAVVSCVPGPVYAASSGQKKQQQSKPQGEARVRLKGGAHPGEGRVEVLKASTWGTVCDRKWDLHAASVVCRELGFGSAREALSGARMGQGMGAIHLSEVRCSGQELSLWKCPHKNITAEDCSHSQDAGVRCNLPYTGAETRIRLSGGRSQHEGRVEVQIGGPGPLRWGLICGDDWGTLEAMVACRQLGLGYANHGLQETWYWDSGNITEVVMSGVRCTGTELSLDQCAHHGTHITCKRTGTRFTAGVICSETASDLLLHSALVQETAYIEDRPLHMLYCAAEENCLASSARSANWPYGHRRLLRFSSQIHNLGRADFRPKAGRHSWVWHECHGHYHSMDIFTHYDILTPNGTKVAEGHKASFCLEDTECQEDVSKRYECANFGEQGITVGCWDLYRHDIDCQWIDITDVKPGNYILQVVINPNFEVAEADFTNNAMKCNCKYDGHRIWVHNCHIGDAFSEEANRRFERYPGQTSNQII

binding (S704D-mutant LOXL3-FLAG): binds
B2: S704D-mutant LOXL3-FLAG (protein, UniProt P58215 26-753)
chain: B1 chain with A679D
